{"source": "paper PMC3851687", "about": "(2013)", "binders": {"B1": {"name": "Drosophila Pygo PHD (amino acids 747–808) (domain or fragment, UniProt Q9V9W8 747-808)", "chain": "IYPCGMCHKEVNDNDEAVFCESGCNFFFHRTCVGLTEAAFQMLNKEVFAEWCCDKCVSSKHI"}}, "molecular_target": "T1, Lgs HD1 (amino acids 321–355) (Drosophila) (UniProt Q961D9)", "T1 sequence": "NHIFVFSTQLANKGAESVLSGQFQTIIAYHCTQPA", "assay": "crystal structure; dPHD-HD1 complex coexpressed in E. coli and purified; crystals grown at 19°C in 1.136 M (NH4)2SO4, 100 mM Tris pH 8.3, 200 mM NaCl; 2.7 Å; both purified", "note": "No constants are given. Whether binding was seen depends on the method and setting. Some results given as binding are weak or reduced against the parent protein; the word gives no strength.", "data": [{"binder": "B1", "values": [{"measurement": "binding", "value": "binds"}]}]}
